In article PMC11844728 one finds binding data, which are given here for 1 molecule.

Amino acid sequences for entries named in this document (tags omitted).
UniProt Q13148: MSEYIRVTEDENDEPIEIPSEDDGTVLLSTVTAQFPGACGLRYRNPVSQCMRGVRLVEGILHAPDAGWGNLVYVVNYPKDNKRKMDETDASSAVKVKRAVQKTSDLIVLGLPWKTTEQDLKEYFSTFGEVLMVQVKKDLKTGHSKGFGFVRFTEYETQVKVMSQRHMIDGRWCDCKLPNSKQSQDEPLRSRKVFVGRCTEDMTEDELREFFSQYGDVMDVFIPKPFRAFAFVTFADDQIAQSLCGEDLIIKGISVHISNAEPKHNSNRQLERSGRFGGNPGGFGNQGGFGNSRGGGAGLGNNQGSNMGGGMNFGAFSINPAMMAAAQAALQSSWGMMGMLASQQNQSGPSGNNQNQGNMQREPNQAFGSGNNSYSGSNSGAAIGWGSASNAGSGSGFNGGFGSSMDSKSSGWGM

Assay [1] concerns the target TDP-43 (transactive response DNA-binding protein 43), endogenous (human (endogenous in U2OS and human iPSC-derived motor neurons)) (UniProt Q13148). Nature of the assay: proximity ligation; Duolink In Situ Red Kit with PIAS4 and TDP-43 antibodies; untreated and arsenite-treated cells (fig. S5D).
In assay [2] the target is FLAG-tagged TDP-43 (transactive response DNA-binding protein 43) (human) (UniProt Q13148). Nature of the assay: co-IP; FLAG-TDP-43 immunoprecipitated on FLAG M2 magnetic beads under nondenaturing conditions from U2OS cells untreated or arsenite treated (500 uM, 1 hour); lysis buffer 50 mM tris-HCl pH 7.4, 150 mM NaCl, 1 mM EDTA, 1% Triton X-100, 20 mM NEM, RNase; 1 hour at 4°C; immunoblot for PIAS4.

These are yes or no findings as the source states them, for the method shown. Binding seen in cells or lysates may run through a third protein. Some entries that bind do so weakly or less than the wild type.

B1: PIAS4 (protein inhibitor of activated STAT 4) (protein, UniProt Q8N2W9 1-510)
chain: MAAELVEAKNMVMSFRVSDLQMLLGFVGRSKSGLKHELVTRALQLVQFDCSPELFKKIKELYETRYAKKNSEPAPQPHRPLDPLTMHSTYDRAGAVPRTPLAGPNIDYPVLYGKYLNGLGRLPAKTLKPEVRLVKLPFFNMLDELLKPTELVPQNNEKLQESPCIFALTPRQVELIRNSRELQPGVKAVQVVLRICYSDTSCPQEDQYPPNIAVKVNHSYCSVPGYYPSNKPGVEPKRPCRPINLTHLMYLSSATNRITVTWGNYGKSYSVALYLVRQLTSSELLQRLKTIGVKHPELCKALVKEKLRLDPDSEIATTGVRVSLICPLVKMRLSVPCRAETCAHLQCFDAVFYLQMNEKKPTWMCPVCDKPAPYDQLIIDGLLSKILSECEDADEIEYLVDGSWCPIRAEKERSCSPQGAILVLGPSDANGLLPAPSVNGSGALGSTGGGGPVGSMENGKPGADVVDLTLDSSSSSEDEEEEEEEEEDEDEEGPRPKRRCPFQKGLVPAC
As to B1, the binding result in assay [1] and in assay [2] was “binds” throughout.
